Source: patent publication US20220112180, “NOVEL COMPOUNDS AS POTENTIAL THERAPEUTIC AGENTS TARGETING VARIOUS NEURODEGENERATIVE DISEASES” (The Hong Kong University of Science and Technology, published 2022)

Tested on: hnRNP F RRM domain
Test: binding assay
Conditions: 1H-15N HSQC NMR titration at 1:1; binding sites almost all blocked by compound cA (1:10:1); 20 mM potassium phosphate, 70 mM KCl, pH 7.0, 25 C; purified recombinant protein; folded or branched DNA

Q: Does “GGGGCCGGGGCCGGGGCCGGGGCC [DNA (G4C2)4 G4]” bind?
A: binds

The exact form of at least one protein or probe is not confirmed.
